5 molecules from publication doi:10.1101/212233 (bioRxiv, 2017) can be followed below.

Results are given in words; binding and its absence hold for the method and conditions named. Some results given as binding are weak or reduced against the parent protein; the word gives no strength. Where a sequence is shown, tags or fusion partners need not be part of it.

Experiment [1] concerns the target T1, DARP14 subunit B (unfused cage subunit B).
T1 sequence: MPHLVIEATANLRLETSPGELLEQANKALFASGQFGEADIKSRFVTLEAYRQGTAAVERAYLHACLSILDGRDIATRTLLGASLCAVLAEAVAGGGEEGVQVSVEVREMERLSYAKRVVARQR
The experiment is described as follows: negative-stain electron microscopy.

For experiment [2] the target is unchanged. Briefly: SEC.
Experiment [3] has the same target. Briefly: cryo-EM structure.
Experiment [4] has as its target T2, DARP10 subunit B (unfused cage subunit).
T2 sequence: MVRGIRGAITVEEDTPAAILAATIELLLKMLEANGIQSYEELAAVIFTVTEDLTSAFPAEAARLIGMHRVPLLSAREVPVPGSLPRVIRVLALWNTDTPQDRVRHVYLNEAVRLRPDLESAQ
The experiment is described as follows: negative-stain electron microscopy.

B1: DARP16 subunit A (cage subunit A fused to the DARPin) (protein)
chain: MRITTKVGDKGSTRLFGGEEVWKDSPIIEANGTLDELTSFIGEAKHYVDEEMKGILEEIQNDIYKIMGEIGSKGKIEGISEERIAWLLKLILRYMEMVNLKSFVLPGGTLESAKLDVCRTIARRALRKVLTVTREFGIGAEAAAYLLALSDLLFLLARVIEIEDLGKKLLEAARAGQDDEVRILMANGADVNAHDDQGSTPLHLAAWIGHPEIVEVLLKHGADVNARDTDGWTPLHLAADNGHLEIVEVLLKYGADVNAQDAYGLTPLHLAADRGHLEIVEVLLKHGADVNAQDKFGKTAFDISIDNGNEDLAEILQKLN
For the molecule B1, the binding result in experiment [1] is given as “binds”.

B2: DARP14 subunit A (cage subunit A fused to the DARPin by a continuous alpha helix) (other)
chain: MRITTKVGDKGSTRLFGGEEVWKDSPIIEANGTLDELTSFIGEAKHYVDEEMKGILEEIQNDIYKIMGEIGSKGKIEGISEERIAWLLKLILRYMEMVNLKSFVLPGGTLESAKLDVCRTIARRALRKVLTVTREFGIGAEAAAYLLALSDLLFLLARVIEIELGKKLLEAARAGQDDEVRILMANGADVNAHDDQGSTPLHLAAWIGHPEIVEVLLKHGADVNARDTDGWTPLHLAADNGHLEIVEVLLKYGADVNAQDAYGLTPLHLAADRGHLEIVEVLLKHGADVNAQDKFGKTAFDISIDNGNEDLAEILQKLN
Regarding B2, the binding entry in experiment [2], in experiment [3] and in experiment [1] was “binds” each time.

B3: DARP10 subunit A (cage subunit fused to the DARPin) (protein)
chain: MEEVVLITVPSALVAVKIAHALVEERLAACVNIVPGLTSIYREEGSVVSDHELLLLVKTTTDAFPKLKERVKELHPYEVPEIVALPIAEGNREYLDWLRENMERARQELGKKLLEAARAGQDDEVRILMANGADVNAHDDQGSTPLHLAAWIGHPEIVEVLLKHGADVNARDTDGWTPLHLAADNGHLEIVEVLLKYGADVNAQDAYGLTPLHLAADRGHLEIVEVLLKHGADVNAQDKFGKTAFDISIDNGNEDLAEILQKLN
In the case of B3, the binding result in experiment [4] is “binds”.

B4: DARP11 subunit A (cage subunit A fused to the DARPin) (protein)
chain: MRITTKVGDKGSTRLFGGEEVWKDSPIIEANGTLDELTSFIGEAKHYVDEEMKGILEEIQNDIYKIMGEIGSKGKIEGISEERIAWLLKLILRYMEMVNLKSFVLPGGTLESAKLDVCRTIARRALRKVLTVTREFGIGAEAAAYLLALSDLLFLLARVIEIEKNDLGKKLLEAARAGQDDEVRILMANGADVNAHDDQGSTPLHLAAWIGHPEIVEVLLKHGADVNARDTDGWTPLHLAADNGHLEIVEVLLKYGADVNAQDAYGLTPLHLAADRGHLEIVEVLLKHGADVNAQDKFGKTAFDISIDNGNEDLAEILQKLN
Regarding B4, in experiment [1], the binding result is given as “binds”.

B5: DARP12 subunit A (cage subunit A fused to the DARPin) (protein)
chain: MRITTKVGDKGSTRLFGGEEVWKDSPIIEANGTLDELTSFIGEAKHYVDEEMKGILEEIQNDIYKIMGEIGSKGKIEGISEERIAWLLKLILRYMEMVNLKSFVLPGGTLESAKLDVCRTIARRALRKVLTVTREFGIGAEAAAYLLALSDLLFLLARVIEIEKNQDLGKKLLEAARAGQDDEVRILMANGADVNAHDDQGSTPLHLAAWIGHPEIVEVLLKHGADVNARDTDGWTPLHLAADNGHLEIVEVLLKYGADVNAQDAYGLTPLHLAADRGHLEIVEVLLKHGADVNAQDKFGKTAFDISIDNGNEDLAEILQKLN
Turning to B5, in experiment [1], the binding result is reported as “binds”.
